± gives the standard deviation of the averaged measurements. This is a noisy data set.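 In each well, ERalpha-negative HeLa cells were transfected with ERalpha, a reporter bearing two estrogen response elements, and one overexpressed, poorly characterized human cDNA. Genes reducing signal to the BRCA1 positive control level (roughly 0.6 of empty vector) or below were scored as repressor hits.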
test system: ERE-luciferase reporter with exogenous ERalpha in HeLa cells; assay: relative ERE luciferase activity (Firefly/Renilla) upon cDNA overexpression, relative to empty vector (fold of empty vector); higher = stronger ERalpha transactivation (less repression); details: 17beta-estradiol: 10 nM; 12 h

| Sequence | relative ERE luciferase activity |
| --- | --- |
| MDILKSEILRKRQLVEDRNLLVENKKYFKRSELAKKEEEAYFERCGYKIQPKEEDQKPLTSSNPVLELELAEEKLPMTLSRQEVIRRLRERGEPIRLFGETDYDAFQRLRKIEILTPEVNKGLRNDLKAALDKIDQQYLNEIVGGQEPGEEDTQNDLKVHEENTTIEELEALGESLGKGDDHKDMDIITKFLKFLLGVWAKELNAREDYVKRSVQGKLNSATQKQTESYLRPLFRKLRKRNLPADIKESITDIIKFMLQREYVKANDAYLQMAIGNAPWPIGVTMVGIHARTGREKIFSKHVAHVLNDETQRKYIQGLKRLMTICQKHFPTDPSKCVEYNAL [PRPF18] | 1.11 |
| MDPSLLRERELFKKRALSTPVVEKRSASSESSSSSSKKKKTKVEHGGSSGSKQNSDHSNGSFNLKALSGSSGYKFGVLAKIVNYMKTRHQRGDTHPLTLDEILDETQHLDIGLKQKQWLMTEALVNNPKIEVIDGKYAFKPKYNVRDKKALLRLLDQHDQRGLGGILLEDIEEALPNSQKAVKALGDQILFVNRPDKKKILFFNDKSCQFSVDEEFQKLWRSVTVDSMDEEKIEEYLKRQGISSMQESGPKKVAPIQRRKKPASQKKRRFKTHNEHLAGVLKDYSDITSSK [GTF2E2] | 0.763 |
| MVPREAPESAQCLCPSLTIPNAKDVLRKRHKRRSRQHQRFMARKALLQEQGLLSMPPEPGSSPLPTPFGAATATEAASSGKQCLRAGSGSAPCSRRPAPGKASGPLPSKCVAIDCEMVGTGPRGRVSELARCSIVSYHGNVLYDKYIRPEMPIADYRTRWSGITRQHMRKAVPFQVAQKEILKLLKGKVVVGHALHNDFQALKYVHPRSQTRDTTYVPNFLSEPGLHTRARVSLKDLALQLLHKKIQVGQHGHSSVEDATTAMELYRLVEVQWEQQEARSLWTCPEDREPDSSTDMEQYMEDQYWPDDLAHGSRGGAREAQDRRN [ISG20L1] | 1.22 |
| MAEGETESPGPKKCGPYISSVTSQSVNLMIRGVVLFFIGVFLALVLNLLQIQRNVTLFPPDVIASIFSSAWWVPPCCGTASAVIGLLYPCIDRHLGEPHKFKREWSSVMRCVAVFVGINHASAKVDFDNNIQLSLTLAALSIGLWWTFDRSRSGFGLGVGIAFLATVVTQLLVYNGVYQYTSPDFLYVRSWLPCIFFAGGITMGNIGRQLAMYECKVIAEKSHQE [INSIG2] | 1.05 |
| MSSKKAKTKTTKKRPQRATSNVFAMFDQSQIQEFKEAFNMIDQNRDGFIDKEDLHDMLASLGKNPTDAYLDAMMNEAPGPINFTMFLTMFGEKLNGTDPEDVIRNAFACFDEEATGTIQEDYLRELLTTMGDRFTDEEVDELYREAPIDKKGNFNYIEFTRILKHGAKDKDD [MRLC2] | 1.01 |
| MFKVIQRSVGPASLSLLTFKVYAAPKKDSPPKNSVKVDELSLYSVPEGQSKYVEEARSQLEESISQLRHYCEPYTTWCQETYSQTKPKMQSLVQWGLDSYDYLQNAPPGFFPRLGVIGFAGLIGLLLARGSKIKKLVYPPGFMGLAASLYYPQQAIVFAQVSGERLYDWGLRGYIVIEDLWKENFQKPGNVKNSPGTK [APOO] | 1.1 |
| MKPVKHLLTTSNKSANVPALTTKKGLHNLPLSPELKEKHNAKLIHDKIEPMVLRSPPTGESILRYALPIPSSKTKNLLPEDEMIGKIIKHLKMVVSTLEETYGHCDQNGEEPFVKHEHEELSLSVGDDMNSFLTYCSQFAAQLEEALKEEQNILESLFKWFQWQVNQMEEISKDQTLLQAEPPKPDKTVILNIAEIVRLVQRFEELKNRLKQRSKSSVKVMLSKTMDKENRPEAVKSCEALAQKIEEFLEAHSTDEFKDVSATEPQTAHSMTNRFNAMLKVFENQANMLERAVNDQVLLDAEYKQMQCDFQLLSEEKLVLENELQKLKDKEKTKPTNNRTKKAVKTVKKKDKGKSEDSEKKMSPEKEFKIKEDLDQVQKVARLEIENKVLQEQLKQALQEAEKAKHQLNYFLNQEKLLKSEGKTETTMQVGNSQTKVKGEDSKNIPLEKETRKSLVSDSGGQRTSDKIQEYPQITAQSGRLIEKSSEKKRSSPAISDLSQILKSQDESAFLESSNEVSVAENQSYKSPSETHDKSLTTVSSSKEVQDSLSVGTLAQKNETVISPFILPPVLTESKKADVSEEQLQKMTEEQTYQAAEKSQADSEVPDENLMVENKDSVTKVQIEQMKQRTSSMERHEETLTTPQLPEDMVLVSRIQSETKNLKATRNESFHSHNDVPEENLMLEQDTKSKTEVEVKKQKSFQDNQLSTHNEVPNERLVVEHQESLSKTKLQIKKQETSTEQPLTTPDKEPNENLILRHQDSMSKSEMQVKEQRTLKGQRIITHDEEPGKNLVLEHQDSVSKLEMQIEKTKKLPREKRHSTHDEESGENPMLKHQDSVSKIQVQLEIQETSEGEGRSIPDKNSMFVHQDSVSKLQMQEKKKITPGRERRNTRIVVPNENVISVHQDSKSKLQMQEKKQINSGVERHKTFPLEIKKKDISLEHLLPEEKVLLSRSESQTKKLQAKVTSRKIKNEAASELPDTAENLPAMYPSISDLIIQFDLNKVVETDIESLRGALGRRLLNDEFKTQSKSFPGPDIEQLTDAFGRDILKDEFKTRSKSLPETDERLHSTTERGTINDAIKTQLKRKSYPETVLKHLKGVNGKDIIKHLINIQSKSHGETDKEHLADDTGRGIIKGSINAQLKGHQKTDKNFFAYATGRGLMKESTTTQLKSHPETDKEFLADAIGRGIIIGPITTQLKSHRETDKELLKDAIGRDIIKGPISAQLKSHQETDVEPLTNAIGSSKTIGEIKTQLRTHYDVNLFKNKDMSVQRQEGIFTRSITPSKFPTKVINLSPFENKEETYEYSSPYVTAPSKAIYRTYRAGPSFSKDIHLPLLNQLPSGHSKVVTLSQKTIEFTLPTVTNTVGKPTYKVLHAAARKSVPHPYF [CCDC7] | 0.952 ± 0.069 |
| MNALLEQKEQQERLREAAALGDIREVQKLVESGVDVNSQNEVNGWTCLHWACKRNHGQVVSYLLKSGADKEILTTKGEMPVQLTSRREIRKIMGVEEEDDDDDDDDNLPQLKKESELPFVPNYLANPAFPFIYTPTAEDSAQMQNGGPSTPPASPPADGSPPLLPPGEPPLLGTFPRDHTSLALVQNGDVSAPSAILRTPESTKPGPVCQPPVSQSRSLFSSVPSKPPMSLEPQNGTYAGPAPAFQPFFFTGAFPFNMQELVLKVRIQNPSLRENDFIEIELDRQELTYQELLRVCCCELGVNPDQVEKIRKLPNTLLRKDKDVARLQDFQELELVLMISENNFLFRNAASTLTERPCYNRRASKLTY [ANKRD40] | 1.04 |
| MRHEAPMQMASAQDARYGQKDSSDQNFDYMFKLLIIGNSSVGKTSFLFRYADDSFTSAFVSTVGIDFKVKTVFKNEKRIKLQIWDTAGQERYRTITTAYYRGAMGFILMYDITNEESFNAVQDWSTQIKTYSWDNAQVILVGNKCDMEDERVISTERGQHLGEQLGFEFFETSAKDNINVKQTFERLVDIICDKMSESLETDPAITAAKQNTRLKETPPPPQPNCAC [RAB3C] | 1.07 |
| MPVKKKRKSPGVAAAVAEDGGLKKCKISSYCRSQPPARLISGEEHFSSKKCLAWFYEYAGPDEVVGPEGMEKFCEDIGVEPENIIMLVLAWKLEAESMGFFTKEEWLKGMTSLQCDCTEKLQNKFDFLRSQLNDISSFKNIYRYAFDFARDKDQRSLDIDTAKSMLALLLGRTWPLFSVFYQYLEQSKYRVMNKDQWYNVLEFSRTVHADLSNYDEDGAWPVLLDEFVEWQKVRQTS [DCUN1D5] | 1.03 |
| MMRTQCLLGLRTFVAFAAKLWSFFIYLLRRQIRTVIQYQTVRYDILPLSPVSRNRLAQVKRKILVLDLDETLIHSHHDGVLRPTVRPGTPPDFILKVVIDKHPVRFFVHKRPHVDFFLEVVSQWYELVVFTASMEIYGSAVADKLDNSRSILKRRYYRQHCTLELGSYIKDLSVVHSDLSSIVILDNSPGAYRSHPDNAIPIKSWFSDPSDTALLNLLPMLDALRFTADVRSVLSRNLHQHRLW [DULLARD] | 1.23 |
| MVLGKVKSLTISFDCLNDSNVPVYSSGDTVSGRVNLEVTGEIRVKSLKIHARGHAKVRWTESRNAGSNTAYTQNYTEEVEYFNHKDILIGHERDDDNSEEGFHTIHSGRHEYAFSFELPQTPLATSFEGRHGSVRYWVKAELHRPWLLPVKLKKEFTVFEHIDINTPSLLSPQAGTKEKTLCCWFCTSGPISLSAKIERKGYTPGESIQIFAEIENCSSRMVVPKAAIYQTQAFYAKGKMKEVKQLVANLRGESLSSGKTETWNGKLLKIPPVSPSILDCSIIRVEYSLMVYVDIPGAMDLFLNLPLVIGTIPLHPFGSRTSSVSSQCSMNMNWLSLSLPERPEAPPSYAEVVTEEQRRNNLAPVSACDDFERALQGPLFAYIQEFRFLPPPLYSEIDPNPDQSADDRPSCPSR [ARRDC3] | 0.873 |

— the supplement of paper PMC2577665
